No constants are given. Whether binding was seen depends on the method and setting. Binding seen in cells or lysates may run through a third protein. Some binding calls cover weakened binding; strength is not graded here.

Chains of the proteins cited; added tags and fusions are not shown.
UniProt Q9H9S0: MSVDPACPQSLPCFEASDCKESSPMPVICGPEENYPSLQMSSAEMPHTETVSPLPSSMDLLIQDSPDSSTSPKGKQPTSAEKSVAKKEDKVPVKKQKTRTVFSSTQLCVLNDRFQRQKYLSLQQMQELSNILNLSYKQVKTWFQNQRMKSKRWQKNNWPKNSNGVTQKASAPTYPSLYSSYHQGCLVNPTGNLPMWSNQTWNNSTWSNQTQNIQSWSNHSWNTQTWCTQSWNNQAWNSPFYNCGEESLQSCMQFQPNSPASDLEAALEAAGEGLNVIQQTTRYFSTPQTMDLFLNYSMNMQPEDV
UniProt P36402: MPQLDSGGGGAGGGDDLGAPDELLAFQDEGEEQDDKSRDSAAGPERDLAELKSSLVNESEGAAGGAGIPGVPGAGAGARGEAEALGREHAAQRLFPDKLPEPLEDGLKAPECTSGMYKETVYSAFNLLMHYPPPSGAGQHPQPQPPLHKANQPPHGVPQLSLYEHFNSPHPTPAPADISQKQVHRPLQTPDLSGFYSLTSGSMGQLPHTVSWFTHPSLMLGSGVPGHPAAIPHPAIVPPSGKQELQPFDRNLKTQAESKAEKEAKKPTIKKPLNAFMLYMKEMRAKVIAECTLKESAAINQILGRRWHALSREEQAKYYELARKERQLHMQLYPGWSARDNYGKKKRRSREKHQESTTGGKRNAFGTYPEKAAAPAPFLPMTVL

For this assay, the target named is FLAG-NANOG (human) (UniProt Q9H9S0). Nature of the assay: co-IP.

In the case of TCF7 (from UniProt P36402 1-384), the binding entry is “binds”.

These data come from article doi:10.1101/2021.05.22.445238.
